Assay results as given in the supplement of paper PMC8728848.
This is one part of the list.

Tests used:
Experiment in all cases: glycan array binding signal (z-score within array); higher = stronger binding
Details in all cases: glycan notation: IUPAC condensed, linker removed
[1] = target: Neu5Ac(a2-3)Gal(b1-4)GlcNAc(b1-6)GalNAc
Outline: (§1)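 Columns mapping to the same glycan were averaged after glycan names were converted to IUPAC-condensed notation. The data come from 3228 arrays in the Consortium for Functional Glycomics database, limited to those with an available protein sequence. Binding is reported as a within-array Z-score averaged across arrays of one protein sequence and across linkers.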

[2] = target: Neu5Ac(a2-3)Gal(b1-4)GlcNAc(b1-6)[Gal(b1-3)]GalNAc
Outline: as §1

[3] = target: Neu5Ac(a2-3)Gal(b1-4)GlcNAc(b1-6)[Neu5Ac(a2-3)Gal(b1-3)]GalNAc
Outline: as §1

[4] = target: Neu5Ac(a2-3)Gal(b1-4)GlcNAc6S
Outline: as §1

[5] = target: Neu5Ac(a2-3)Gal(b1-4)[Fuc(a1-3)]GlcNAc
Outline: as §1

[6] = target: Neu5Ac(a2-3)Gal(b1-4)[Fuc(a1-3)]GlcNAc(b1-2)Man
Outline: as §1

[7] = target: Neu5Ac(a2-3)Gal(b1-4)[Fuc(a1-3)]GlcNAc(b1-3)Gal
Outline: as §1

[8] = target: Neu5Ac(a2-3)Gal(b1-4)[Fuc(a1-3)]GlcNAc(b1-3)Gal(b1-4)GlcNAc
Outline: as §1

[9] = target: Neu5Ac(a2-3)Gal(b1-4)[Fuc(a1-3)]GlcNAc(b1-3)Gal(b1-4)[Fuc(a1-3)]GlcNAc(b1-3)Gal(b1-4)[Fuc(a1-3)]GlcNAc
Outline: as §1

[10] = target: Neu5Ac(a2-3)Gal(b1-4)[Fuc(a1-3)]GlcNAc(b1-3)GalNAc
Outline: as §1

[11] = target: Neu5Ac(a2-3)Gal(b1-4)[Fuc(a1-3)]GlcNAc(b1-6)[Gal(b1-3)]GalNAc
Outline: as §1

[12] = target: Neu5Ac(a2-3)Gal(b1-4)[Fuc(a1-3)]GlcNAc(b1-6)[Neu5Ac(a2-3)Gal(b1-3)]GalNAc
Outline: as §1

[13] = target: Neu5Ac(a2-3)Gal(b1-4)[Fuc(a1-3)]GlcNAc6S
Outline: as §1

[14] = target: Neu5Ac(a2-3)Gal6S(b1-4)GlcNAc
Outline: as §1

[15] = target: Neu5Ac(a2-3)Gal6S(b1-4)[Fuc(a1-3)]GlcNAc
Outline: as §1

Neu5Ac(a2-3)GalNAc = target: Neu5Ac(a2-3)GalNAc
Outline: as §1

[16] = target: Neu5Ac(a2-3)GalNAc(b1-4)GlcNAc
Outline: as §1

[17] = target: Neu5Ac(a2-3)[GalNAc(b1-4)]Gal(b1-4)Glc
Outline: as §1

[18] = target: Neu5Ac(a2-3)[GalNAc(b1-4)]Gal(b1-4)GlcNAc
Outline: as §1

[19] = target: Neu5Ac(a2-3)[GalNAc(b1-4)]Gal(b1-4)GlcNAc(b1-3)GalNAc
Outline: as §1

[20] = target: Neu5Ac(a2-3)[Neu5Ac(a2-6)]GalNAc
Outline: as §1

Neu5Ac(a2-6)Gal = target: Neu5Ac(a2-6)Gal
Outline: as §1

[21] = target: Neu5Ac(a2-6)Gal(b1-3)GlcNAc(b1-3)[Gal(b1-4)GlcNAc(b1-6)]Gal(b1-4)Glc
Outline: as §1

Neu5Ac(a2-6)Gal(b1-4)Glc = target: Neu5Ac(a2-6)Gal(b1-4)Glc
Outline: as §1

[22] = target: Neu5Ac(a2-6)Gal(b1-4)GlcNAc
Outline: as §1

[23] = target: Neu5Ac(a2-6)Gal(b1-4)GlcNAc(b1-2)Man
Outline: as §1

[24] = target: Neu5Ac(a2-6)Gal(b1-4)GlcNAc(b1-2)Man(a1-3)Man(b1-4)GlcNAc(b1-4)GlcNAc
Outline: as §1

[25] = target: Neu5Ac(a2-6)Gal(b1-4)GlcNAc(b1-2)Man(a1-3)[Gal(b1-4)GlcNAc(b1-2)Man(a1-6)]Man(b1-4)GlcNAc(b1-4)GlcNAc
Outline: as §1

[26] = target: Neu5Ac(a2-6)Gal(b1-4)GlcNAc(b1-2)Man(a1-3)[GlcNAc(b1-2)Man(a1-6)]Man(b1-4)GlcNAc(b1-4)GlcNAc
Outline: as §1

[27] = target: Neu5Ac(a2-6)Gal(b1-4)GlcNAc(b1-2)Man(a1-3)[GlcNAc(b1-4)][Neu5Ac(a2-6)Gal(b1-4)GlcNAc(b1-2)Man(a1-6)]Man(b1-4)GlcNAc(b1-4)GlcNAc
Outline: as §1

[28] = target: Neu5Ac(a2-6)Gal(b1-4)GlcNAc(b1-2)Man(a1-3)[Man(a1-6)]Man(b1-4)GlcNAc(b1-4)GlcNAc
Outline: as §1

[29] = target: Neu5Ac(a2-6)Gal(b1-4)GlcNAc(b1-2)Man(a1-3)[Neu5Ac(a2-3)Gal(b1-4)GlcNAc(b1-2)Man(a1-6)]Man(b1-4)GlcNAc(b1-4)GlcNAc
Outline: as §1

[30] = target: Neu5Ac(a2-6)Gal(b1-4)GlcNAc(b1-2)Man(a1-3)[Neu5Ac(a2-6)Gal(b1-4)GlcNAc(b1-2)Man(a1-6)]Man(b1-4)GlcNAc(b1-4)GlcNAc
Outline: as §1

[31] = target: Neu5Ac(a2-6)Gal(b1-4)GlcNAc(b1-2)Man(a1-3)[Neu5Ac(a2-6)Gal(b1-4)GlcNAc(b1-2)Man(a1-6)]Man(b1-4)GlcNAc(b1-4)[Fuc(a1-6)]GlcNAc
Outline: as §1

[32] = target: Neu5Ac(a2-6)Gal(b1-4)GlcNAc(b1-2)Man(a1-6)Man(b1-4)GlcNAc(b1-4)GlcNAc
Outline: as §1

[33] = target: Neu5Ac(a2-6)Gal(b1-4)GlcNAc(b1-2)Man(a1-6)[Gal(b1-4)GlcNAc(b1-2)Man(a1-3)]Man(b1-4)GlcNAc(b1-4)GlcNAc
Outline: as §1

[34] = target: Neu5Ac(a2-6)Gal(b1-4)GlcNAc(b1-2)Man(a1-6)[GlcNAc(b1-2)Man(a1-3)]Man(b1-4)GlcNAc(b1-4)GlcNAc
Outline: as §1

[35] = target: Neu5Ac(a2-6)Gal(b1-4)GlcNAc(b1-2)Man(a1-6)[Man(a1-3)]Man(b1-4)GlcNAc(b1-4)GlcNAc
Outline: as §1

[36] = target: Neu5Ac(a2-6)Gal(b1-4)GlcNAc(b1-2)[Neu5Ac(a2-6)Gal(b1-4)GlcNAc(b1-4)]Man(a1-3)[GlcNAc(b1-4)][Neu5Ac(a2-6)Gal(b1-4)GlcNAc(b1-2)[Neu5Ac(a2-6)Gal(b1-4)GlcNAc(b1-6)]Man(a1-6)]Man(b1-4)GlcNAc(b1-4)GlcNAc
Outline: as §1

[37] = target: Neu5Ac(a2-6)Gal(b1-4)GlcNAc(b1-2)[Neu5Ac(a2-6)Gal(b1-4)GlcNAc(b1-4)]Man(a1-3)[GlcNAc(b1-4)][Neu5Ac(a2-6)Gal(b1-4)GlcNAc(b1-4)Man(a1-6)]Man(b1-4)GlcNAc(b1-4)GlcNAc
Outline: as §1

[38] = target: Neu5Ac(a2-6)Gal(b1-4)GlcNAc(b1-2)[Neu5Ac(a2-6)Gal(b1-4)GlcNAc(b1-6)]Man(a1-6)[Neu5Ac(a2-6)Gal(b1-4)GlcNAc(b1-2)Man(a1-3)][GlcNAc(b1-4)]Man(b1-4)GlcNAc(b1-4)GlcNAc
Outline: as §1

[39] = target: Neu5Ac(a2-6)Gal(b1-4)GlcNAc(b1-3)Gal(b1-3)GlcNAc
Outline: as §1

[40] = target: Neu5Ac(a2-6)Gal(b1-4)GlcNAc(b1-3)Gal(b1-4)GlcNAc
Outline: as §1

[41] = target: Neu5Ac(a2-6)Gal(b1-4)GlcNAc(b1-3)Gal(b1-4)GlcNAc(b1-2)Man(a1-3)[Neu5Ac(a2-6)Gal(b1-4)GlcNAc(b1-3)Gal(b1-4)GlcNAc(b1-2)Man(a1-6)]GalNAc
Outline: as §1

[42] = target: Neu5Ac(a2-6)Gal(b1-4)GlcNAc(b1-3)Gal(b1-4)GlcNAc(b1-3)Gal(b1-4)GlcNAc
Outline: as §1

[43] = target: Neu5Ac(a2-6)Gal(b1-4)GlcNAc(b1-3)Gal(b1-4)GlcNAc(b1-3)Gal(b1-4)GlcNAc(b1-2)Man(a1-3)[Neu5Ac(a2-6)Gal(b1-4)GlcNAc(b1-3)Gal(b1-4)GlcNAc(b1-3)Gal(b1-4)GlcNAc(b1-2)Man(a1-6)]GalNAc
Outline: as §1

B1: Thrombomodulin Extracellular (Mus musculus), P15306 (protein)
chain: MLGIFFLGVLAPASLGLSALAKLQPTGSQCVEHECFALFQGPATFLDASQACQRLQGHLMTVRSSVAADVISLLLSQSSMDLGPWIGLQLPQGCDDPVHLGPLRGFQWVTGDNHTSYSRWARPNDQTAPLCGPLCVTVSTATEAAPGEPAWEEKPCETETQGFLCEFYFTASCRPLTVNTRDPEAAHISSTYNTPFGVSGADFQTLPVGSSAAVEPLGLELVCRAPPGTSEGHWAWEATGAWNCSVENGGCEYLCNRSTNEPRCLCPRDMDLQADGRSCARPVVQSCNELCEHFCVSNAEVPGSYSCMCETGYQLAADGHRCEDVDDCKQGPNPCPQLCVNTKGGFECFCYDGYELVDGECVELLDPCFGSNCEFQCQPVSPTDYRCICAPGFAPKPDEPHKCEMFCNETSCPADCDPNSPTVCECPEGFILDEGSVCTDIDECSQGECFTSECRNFPGSYECICGPDTALAGQISKDCDPIPVREDTKEEEGSGEPPVSPTPGSPTGPPSARPVHSGVLIGISIASLSLVVALLALLCHLRKKQGAARAELEYKCASSAKEVVLQHVRTDRTLQKF
[1]
  glycan array binding signal (z-score): 0.353
[2]
  glycan array binding signal (z-score): 0.65
[3]
  glycan array binding signal (z-score): 0.2
[4]
  glycan array binding signal (z-score): -0.748
[5]
  glycan array binding signal (z-score): -0.322
[6]
  glycan array binding signal (z-score): -1.17
[7]
  glycan array binding signal (z-score): 0.119
[8]
  glycan array binding signal (z-score): 0.865
[9]
  glycan array binding signal (z-score): -1.58
[10]
  glycan array binding signal (z-score): 2.09
[11]
  glycan array binding signal (z-score): -0.283
[12]
  glycan array binding signal (z-score): 0.974
[13]
  glycan array binding signal (z-score): -0.158
[14]
  glycan array binding signal (z-score): -0.167
[15]
  glycan array binding signal (z-score): -1.88
Neu5Ac(a2-3)GalNAc
  glycan array binding signal (z-score): -1.59
[16]
  glycan array binding signal (z-score): -0.009
[17]
  glycan array binding signal (z-score): 0.754
[18]
  glycan array binding signal (z-score): -0.842
[19]
  glycan array binding signal (z-score): 0.896
[20]
  glycan array binding signal (z-score): 0.585
Neu5Ac(a2-6)Gal
  glycan array binding signal (z-score): -0.681
[21]
  glycan array binding signal (z-score): -1.79
Neu5Ac(a2-6)Gal(b1-4)Glc
  glycan array binding signal (z-score): -0.597
[22]
  glycan array binding signal (z-score): 0.191
[23]
  glycan array binding signal (z-score): -0.589
[24]
  glycan array binding signal (z-score): 1.57
[25]
  glycan array binding signal (z-score): -0.047
[26]
  glycan array binding signal (z-score): -0.244
[27]
  glycan array binding signal (z-score): 0.188
[28]
  glycan array binding signal (z-score): 2.56
[29]
  glycan array binding signal (z-score): -0.885
[30]
  glycan array binding signal (z-score): 0.407
[31]
  glycan array binding signal (z-score): 1.7
[32]
  glycan array binding signal (z-score): 1.23
[33]
  glycan array binding signal (z-score): 0.959
[34]
  glycan array binding signal (z-score): 0.976
[35]
  glycan array binding signal (z-score): -0.419
[36]
  glycan array binding signal (z-score): -0.697
[37]
  glycan array binding signal (z-score): 1.28
[38]
  glycan array binding signal (z-score): -0.375
[39]
  glycan array binding signal (z-score): -0.789
[40]
  glycan array binding signal (z-score): -0.733
[41]
  glycan array binding signal (z-score): 1.96
[42]
  glycan array binding signal (z-score): -0.19
[43]
  glycan array binding signal (z-score): 1.73
